Test results as given in publication PMC10412619.
These are yes or no findings as the source states them, for the method shown. Binding seen in cells or lysates may run through a third protein. Some results given as binding are weak or reduced against the parent protein; the word gives no strength.

The chains behind the UniProt entries cited, without tags or fusion partners.
UniProt P98170: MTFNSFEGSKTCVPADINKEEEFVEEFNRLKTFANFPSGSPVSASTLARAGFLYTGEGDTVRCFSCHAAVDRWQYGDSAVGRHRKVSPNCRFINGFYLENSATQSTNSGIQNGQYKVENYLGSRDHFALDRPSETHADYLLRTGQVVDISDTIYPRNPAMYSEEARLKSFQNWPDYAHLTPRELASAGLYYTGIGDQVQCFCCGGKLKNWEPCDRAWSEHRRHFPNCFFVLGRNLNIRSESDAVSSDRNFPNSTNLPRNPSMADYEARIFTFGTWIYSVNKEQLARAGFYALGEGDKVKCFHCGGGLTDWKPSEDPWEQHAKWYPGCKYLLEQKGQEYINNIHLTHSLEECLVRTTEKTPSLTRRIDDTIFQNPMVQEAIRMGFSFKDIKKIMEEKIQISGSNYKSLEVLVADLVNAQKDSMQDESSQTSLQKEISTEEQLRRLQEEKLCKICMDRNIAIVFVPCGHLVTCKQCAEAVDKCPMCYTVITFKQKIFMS
UniProt Q06609: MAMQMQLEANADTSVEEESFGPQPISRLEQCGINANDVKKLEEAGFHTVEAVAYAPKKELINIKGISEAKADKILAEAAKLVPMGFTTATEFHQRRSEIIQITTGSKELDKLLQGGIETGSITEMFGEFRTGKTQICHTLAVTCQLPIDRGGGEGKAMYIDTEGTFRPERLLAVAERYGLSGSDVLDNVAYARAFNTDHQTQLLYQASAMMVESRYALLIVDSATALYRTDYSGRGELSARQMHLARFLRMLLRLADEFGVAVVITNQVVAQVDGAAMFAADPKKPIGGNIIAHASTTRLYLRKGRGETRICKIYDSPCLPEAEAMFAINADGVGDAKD

Experiments:
[1] = target: X-linked inhibitor of apoptosis (XIAP) (human (endogenous in TE-1)) (UniProt P98170); test: co-IP; XIAP and RAD51 complexes immunoprecipitated from POLI-expressing and POLI-deficient ESCC cells
[2] = target: X-linked inhibitor of apoptosis (XIAP) (human (endogenous in TE-1)) (UniProt P98170); test: co-IP; whole cell lysate from TE-1 cells, RIPA lysis buffer, primary antibody overnight at 4 °C, protein A + G agarose
[3] = target: T1, DNA polymerase iota (POLI) (human (endogenous in TE-1)) (UniProt Q9UNA4); test: as above
T1 sequence: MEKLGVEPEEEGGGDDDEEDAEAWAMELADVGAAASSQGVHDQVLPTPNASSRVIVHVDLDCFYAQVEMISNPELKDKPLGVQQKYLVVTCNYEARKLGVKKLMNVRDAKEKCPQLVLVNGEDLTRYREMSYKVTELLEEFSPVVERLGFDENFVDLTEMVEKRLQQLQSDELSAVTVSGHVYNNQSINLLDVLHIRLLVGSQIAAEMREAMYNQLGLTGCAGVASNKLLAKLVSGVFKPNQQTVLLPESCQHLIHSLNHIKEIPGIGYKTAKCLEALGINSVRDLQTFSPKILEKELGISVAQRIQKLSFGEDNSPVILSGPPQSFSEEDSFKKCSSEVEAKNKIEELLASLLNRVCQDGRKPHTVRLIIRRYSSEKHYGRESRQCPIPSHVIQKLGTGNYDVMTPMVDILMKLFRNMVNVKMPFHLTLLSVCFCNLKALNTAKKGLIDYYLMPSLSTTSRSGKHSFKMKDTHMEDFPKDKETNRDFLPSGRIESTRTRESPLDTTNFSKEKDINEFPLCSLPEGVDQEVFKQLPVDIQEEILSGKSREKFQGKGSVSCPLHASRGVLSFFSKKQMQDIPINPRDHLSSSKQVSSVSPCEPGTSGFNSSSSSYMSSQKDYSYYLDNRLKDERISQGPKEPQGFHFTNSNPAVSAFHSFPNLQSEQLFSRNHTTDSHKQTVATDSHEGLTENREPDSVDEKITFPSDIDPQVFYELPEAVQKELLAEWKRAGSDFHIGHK

Row | binding [1] | binding [2] | binding [3] | Substance
1 | binds | binds |  | RAD51 (from UniProt Q06609 1-339)
2 |  |  | binds | X-linked inhibitor of apoptosis (XIAP) (from UniProt P98170 1-497)
